## Primary screen of a compound library

The chains behind the UniProt entries cited, without tags or fusion partners.
UniProt E9BF75, entry or part of it: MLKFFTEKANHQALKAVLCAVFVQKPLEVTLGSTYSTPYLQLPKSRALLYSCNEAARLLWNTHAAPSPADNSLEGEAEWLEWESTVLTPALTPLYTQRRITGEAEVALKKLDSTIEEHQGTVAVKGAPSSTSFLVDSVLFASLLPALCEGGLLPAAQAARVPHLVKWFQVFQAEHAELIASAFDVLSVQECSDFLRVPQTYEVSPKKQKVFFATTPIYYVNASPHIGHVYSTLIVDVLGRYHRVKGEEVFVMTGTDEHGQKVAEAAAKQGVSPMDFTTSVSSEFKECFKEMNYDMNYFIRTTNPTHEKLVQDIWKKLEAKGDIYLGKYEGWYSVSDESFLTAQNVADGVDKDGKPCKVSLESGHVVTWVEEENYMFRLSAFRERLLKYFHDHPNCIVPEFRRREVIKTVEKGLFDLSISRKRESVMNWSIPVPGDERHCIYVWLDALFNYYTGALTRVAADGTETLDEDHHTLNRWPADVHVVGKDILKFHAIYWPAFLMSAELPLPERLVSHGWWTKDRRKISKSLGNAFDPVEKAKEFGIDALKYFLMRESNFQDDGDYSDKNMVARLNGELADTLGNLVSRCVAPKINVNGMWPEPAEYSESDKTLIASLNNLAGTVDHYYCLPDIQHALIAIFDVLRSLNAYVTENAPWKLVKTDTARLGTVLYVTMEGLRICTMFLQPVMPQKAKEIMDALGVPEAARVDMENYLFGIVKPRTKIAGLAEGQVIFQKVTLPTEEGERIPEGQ

Measurements from “University of Dundee, Small-Polar-MMV Screening Library” (2021), ChEMBL document CHEMBL3988442.

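Methionyl-tRNA synthetase (putative), Leishmania donovani (UniProt E9BF75). Primary screen of methionyl-tRNA synthetase; the read-out is not stated. The test concentration is not given. Values are per cent inhibition. Size under these conditions: about 68,000 compounds, about 24 of them at 50% or above in at least one test.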

All values are in %. How 0% and 100% were set is not recorded. Most values in the screen are low, and negative values occur. This is an unselected part of the compounds tested.

{"compound": "Cn1nc(C(=O)N2CCCCC2c2nc3cc(F)ccc3[nH]2)ccc1=O", "stereo": "stereo not shown", "inhibition": 7.965}
{"compound": "Cc1ccc(C(=O)N2CC3(CCNCC3)c3cc(Cl)ccc32)cn1", "inhibition": 15.71}
{"compound": "COc1ccc(CN2C[C@@H]3COC[C@@H](N4CCN(C)CC4)[C@@H]3C2)cc1", "inhibition": 13.19}
{"compound": "Cc1nnc(N2C[C@H](OCc3ccncc3)[C@H]3OCCC[C@H]32)s1", "inhibition": 9.774}
{"compound": "CCN1CC2(CC1=O)CN(C(=O)NC(C)C)CCN(S(C)(=O)=O)C2", "stereo": "stereo not shown", "inhibition": 3.297}
{"compound": "Cc1nn(C)c(C)c1NC(=O)CN1CCOC(Cn2cccn2)C1", "stereo": "stereo not shown", "inhibition": 9.966}
{"compound": "Cc1cccc(CN2CCS(=O)(=O)[C@@H]3CCN(S(C)(=O)=O)CC[C@@H]32)n1", "inhibition": 0.346}
{"compound": "Cc1noc(C)c1CN1CC2(CCN(C(=O)c3cscn3)CC2)CC1=O", "inhibition": 11.02}
{"compound": "Cc1cccn2c(CNC(C)CCn3cccn3)cnc12", "stereo": "stereo not shown", "inhibition": 9.375}
{"compound": "CC(C)c1nc(CN(C)C(=O)c2ccc(CN3CCCCC3)cc2)cs1", "inhibition": 13.81}
{"compound": "CC(O)CN1CCC(CN(C)CCC(=O)NC2CCCC2)CC1", "stereo": "stereo not shown", "inhibition": 5.943}
{"compound": "O=C(NCc1ccco1)c1cc[n+]([O-])cc1", "inhibition": 6.522}
{"compound": "CC(C)NC(=O)COc1cccc(-c2nc(C(C)C)no2)c1", "inhibition": 3.311}
{"compound": "Cc1cc2n(n1)CC(CNC1CCN(c3ccccn3)CC1)CN2", "stereo": "stereo not shown", "inhibition": 11.39}
{"compound": "OC(COc1ccccc1Br)COC1CCOCC1", "stereo": "stereo not shown", "inhibition": 9.851}
{"compound": "CCCc1n[nH]c(C2CN(CCCOc3ccccc3)CCO2)n1", "stereo": "stereo not shown", "inhibition": 9.722}
{"compound": "COc1c(C2CCCN2C(=O)c2cnc[nH]2)c(C)nn1C", "stereo": "stereo not shown", "inhibition": 4.843}
{"compound": "Cc1ccc(C(=O)N2CCC3(CC2)CN(CCN(C)C)C(=O)O3)c(F)c1", "inhibition": 9.157}
{"compound": "CCn1cnnc1CNC(=O)c1ccc(Cl)cc1I", "inhibition": 18.05}
{"compound": "Cc1ccc(CN2CCO[C@@H]3C[C@@H](C(=O)NC(C)C)C[C@H]32)o1", "inhibition": 2.28}
{"compound": "Cc1ccc2cccc(Oc3nc(C)c(C(=O)O)s3)c2n1", "inhibition": 4.607}
{"compound": "COc1ccccc1OCC(=O)NS(=O)(=O)c1ccc(Cl)s1", "inhibition": 4.918}
{"compound": "COCCc1noc(CN2CC(n3nc(C)cc3C)C2)n1", "inhibition": 15.3}
{"compound": "CCC(O)CN(CC(=O)NC(=O)NC1CC1)c1ccccc1", "stereo": "stereo not shown", "inhibition": 10.65}
{"compound": "CC(C(=O)NCc1ccc(N2CCCC2)nc1)n1cncn1", "stereo": "stereo not shown", "inhibition": 25}
{"compound": "COc1cc(C(=O)NS(=O)(=O)c2cc(Cl)sc2Cl)ccc1OC(F)F", "inhibition": 17.51}
{"compound": "c1cc(N2CCC(CN3CCOCC3)CC2)c2sccc2n1", "inhibition": 9.322}
{"compound": "CCCn1ncc(C(=O)NC(C)c2c(C)nn(CC)c2C)c1C", "stereo": "stereo not shown", "inhibition": 16.19}
{"compound": "Cc1cccc(CN2C[C@@H]3CN(C(=O)C4CCOC4)C[C@@H]3C2=O)c1", "stereo": "stereo partly shown", "inhibition": 17.01}
{"compound": "O=C1CC2(CCCCN2C(=O)c2ccccc2)CN1CC1CC1", "stereo": "stereo not shown", "inhibition": 11.22}
{"compound": "CCCc1cncnc1N1CCC2(CCC(=O)N(C3CCCC3)C2)CC1", "inhibition": 17.35}
{"compound": "CC(C)NC(=O)CN(C)C(=O)c1csc(Cc2ccccc2F)n1", "inhibition": 20.95}
{"compound": "CCc1noc(CNc2cc3c(cc2Cl)OCCO3)n1", "inhibition": -1.242}
{"compound": "Cc1ccc(CN2CCCC3(CCCC(=O)N3C)C2)s1", "stereo": "stereo not shown", "inhibition": 10.64}
{"compound": "COCCN1C[C@H](NC(=O)CCC(F)(F)F)[C@@H](C(C)C)C1", "inhibition": 1.023}
{"compound": "O=C1CC(c2ccsc2)c2cnn(C3CCCC3)c2N1", "stereo": "stereo not shown", "inhibition": 16.28}
{"compound": "Cc1csc(C2CCCCN2C(=O)c2cc(Cl)c[nH]2)n1", "stereo": "stereo not shown", "inhibition": 16.26}
{"compound": "Cc1ncc(C(=O)N2CCCC(n3cccn3)C2)s1", "stereo": "stereo not shown", "inhibition": 18.23}
{"compound": "CC(C)NC(=O)[C@H]1C[C@H]2NCCO[C@@H]2C1", "inhibition": -13.7}
{"compound": "CC(=O)N[C@@H]1CN(Cc2ccc(F)cc2F)C[C@H]1c1ccc(C)o1", "inhibition": -0.361}

Some entries from above, unchanged:

* O=C1CC(c2ccsc2)c2cnn(C3CCCC3)c2N1 (stereo not shown) : 16.28%
* CC(C)c1nc(CN(C)C(=O)c2ccc(CN3CCCCC3)cc2)cs1 : 13.81%
* Cc1csc(C2CCCCN2C(=O)c2cc(Cl)c[nH]2)n1 (stereo not shown) : 16.26%
* Cc1cccc(CN2CCS(=O)(=O)[C@@H]3CCN(S(C)(=O)=O)CC[C@@H]32)n1 : 0.346%